Drawing on PMC9848475, this text covers binding for one substance.

Chains of the proteins cited; added tags and fusions are not shown. Lines headed by an entry give the natural chain unless they say otherwise; changes in a name come on top.
UniProt Q9QZ85: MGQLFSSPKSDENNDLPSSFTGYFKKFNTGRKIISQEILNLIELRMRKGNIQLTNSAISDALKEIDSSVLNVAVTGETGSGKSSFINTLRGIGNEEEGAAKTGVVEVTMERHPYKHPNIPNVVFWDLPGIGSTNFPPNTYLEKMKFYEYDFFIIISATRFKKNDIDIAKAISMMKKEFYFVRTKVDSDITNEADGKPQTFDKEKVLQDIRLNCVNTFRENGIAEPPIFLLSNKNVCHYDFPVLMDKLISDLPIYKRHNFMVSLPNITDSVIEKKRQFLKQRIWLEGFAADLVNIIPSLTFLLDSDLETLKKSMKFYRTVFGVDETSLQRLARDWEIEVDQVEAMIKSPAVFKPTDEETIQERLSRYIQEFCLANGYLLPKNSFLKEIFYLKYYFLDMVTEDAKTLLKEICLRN
UniProt S8F1L0: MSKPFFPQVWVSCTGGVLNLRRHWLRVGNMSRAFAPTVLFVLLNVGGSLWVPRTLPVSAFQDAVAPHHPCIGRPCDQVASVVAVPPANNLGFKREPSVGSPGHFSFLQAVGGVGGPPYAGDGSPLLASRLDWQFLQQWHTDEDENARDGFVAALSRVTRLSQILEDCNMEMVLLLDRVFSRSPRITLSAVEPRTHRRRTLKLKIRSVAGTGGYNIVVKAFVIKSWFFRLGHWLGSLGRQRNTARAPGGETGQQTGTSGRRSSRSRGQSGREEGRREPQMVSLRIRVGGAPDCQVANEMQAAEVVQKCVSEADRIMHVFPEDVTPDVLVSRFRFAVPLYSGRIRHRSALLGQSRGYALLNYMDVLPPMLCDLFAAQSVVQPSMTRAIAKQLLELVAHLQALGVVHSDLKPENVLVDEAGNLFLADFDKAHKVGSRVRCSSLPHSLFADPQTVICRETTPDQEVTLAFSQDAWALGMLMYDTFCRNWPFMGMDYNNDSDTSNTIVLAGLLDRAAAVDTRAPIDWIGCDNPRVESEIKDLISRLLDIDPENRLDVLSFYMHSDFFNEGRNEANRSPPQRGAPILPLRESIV

No constants are given. Whether binding was seen depends on the method and setting. Binding seen in cells or lysates may run through a third protein. For some assays here: Tags and fused reporters may be left off the sequences shown.

Experiment [1] addresses Irga6 fused to a fragment of TEM-1 β-lactamase (mouse) (UniProt Q9QZ85). Put plainly: split reporter; protein-fragment complementation assay with split TEM-1 β-lactamase (BlaN, BlaC fusions) co-transfected in HEK293T; nitrocefin hydrolysis in lysates, absorbance at 495 nm.
For experiment [2], the target named is T1, Irgb6 fused to a fragment of TEM-1 β-lactamase (mouse) (UniProt Q62293).
T1 sequence: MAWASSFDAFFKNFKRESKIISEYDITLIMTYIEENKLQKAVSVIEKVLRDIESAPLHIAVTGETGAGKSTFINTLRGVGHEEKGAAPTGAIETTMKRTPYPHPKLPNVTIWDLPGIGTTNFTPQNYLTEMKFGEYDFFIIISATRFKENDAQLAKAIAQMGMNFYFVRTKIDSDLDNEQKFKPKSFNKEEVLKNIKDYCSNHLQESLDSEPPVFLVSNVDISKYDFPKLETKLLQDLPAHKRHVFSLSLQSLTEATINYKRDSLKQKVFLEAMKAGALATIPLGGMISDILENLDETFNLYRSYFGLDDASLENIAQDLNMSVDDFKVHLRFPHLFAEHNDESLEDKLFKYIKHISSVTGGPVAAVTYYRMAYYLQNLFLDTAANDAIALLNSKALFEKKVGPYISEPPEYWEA
Described as above.

Turning to “T. gondii type I ROP39 fused to the C-terminal fragment of TEM-1 β-lactamase (from UniProt S8F1L0)”, the binding result in experiment [1] and in experiment [2] was “no binding” each time.
